Measurements from US20050042631A1 (US Dept. of Health and Human Services, published 2005).

Biological target: T1, PC4 (positive cofactor 4), native, in the P11/0.85 M KCl fraction of HeLa cell nuclear extract (human, UniProt P53999 2-127)
T1 construct: Renatured on PVDF membrane after SDS-PAGE; also called 20 kDa protein
Experiment: Farwestern blot of HeLa nuclear extract P11 fractions

B1: GST-K-p52 (other)
chain: MTRDFKPGDLIFAKMKGYPHWPARVDEVPDGAVKPPTNKLPIFFFGTHETAFLGPKDIFPYSENKEKYGKPNKRKGFNEGLWEIDNNPKVKFSSQQAATKQSNASSDVEVEEKETSVSKEDTDHEEKASNEDVTKAVDITTPKAARRGRKRKAEKQVETEEAGVVTTATASVNLKVSPKRGRPAATEVKIPKPRGRPKMVKQPCPSESDIITEEDKSKKKGQEGKQPKKQPKKDEEGQKEEDKPRKEPDKKEGKKEVESKRKNLAKTGVTSTSDSEEEGDDQEGEKKRKGGRNFQTAHRRNMLKGQHEKEAADRKRKQEEQMETEHQTTCNLQ
modifications: 32P-labeled by HMK where used as Farwestern probe
notes: The Nru I-EcoR V fragment of p52 cDNA was put in pGEX-2T(K); also called GST-p52; p52 probe; not shown: glutathione-S-transferase from the pGEX-2T(K) vector; heart muscle kinase (K) site and vector linker
B1: binds.
